Source: doi:10.1101/803932
No constants are given. Whether binding was seen depends on the method and setting. Binding seen in cells or lysates may run through a third protein. Some results given as binding are weak or reduced against the parent protein; the word gives no strength. Sequences can lack the tags named with a protein.

By UniProt entry, the sequences of proteins in these tests, tags left out.
UniProt Q27368: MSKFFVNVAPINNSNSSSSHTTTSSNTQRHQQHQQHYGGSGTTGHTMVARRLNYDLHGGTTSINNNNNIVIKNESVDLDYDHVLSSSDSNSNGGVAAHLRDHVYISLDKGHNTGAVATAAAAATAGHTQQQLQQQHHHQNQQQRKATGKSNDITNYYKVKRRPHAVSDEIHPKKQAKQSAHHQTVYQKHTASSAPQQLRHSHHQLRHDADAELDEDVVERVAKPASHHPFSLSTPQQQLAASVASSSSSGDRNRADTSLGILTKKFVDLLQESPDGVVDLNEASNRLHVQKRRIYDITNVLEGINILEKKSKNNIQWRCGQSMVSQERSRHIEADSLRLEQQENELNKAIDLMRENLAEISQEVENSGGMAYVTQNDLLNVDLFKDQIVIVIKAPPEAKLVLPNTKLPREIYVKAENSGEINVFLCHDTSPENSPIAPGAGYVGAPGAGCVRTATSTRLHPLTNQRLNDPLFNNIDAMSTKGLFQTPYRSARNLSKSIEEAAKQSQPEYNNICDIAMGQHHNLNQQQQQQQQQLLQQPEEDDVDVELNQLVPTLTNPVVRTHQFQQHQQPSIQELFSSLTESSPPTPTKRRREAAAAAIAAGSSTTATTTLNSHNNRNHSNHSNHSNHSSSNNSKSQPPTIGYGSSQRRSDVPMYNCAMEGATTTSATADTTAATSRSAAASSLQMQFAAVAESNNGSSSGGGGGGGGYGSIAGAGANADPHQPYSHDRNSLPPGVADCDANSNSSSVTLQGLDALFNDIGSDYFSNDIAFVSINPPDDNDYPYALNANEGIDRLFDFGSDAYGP

Biological target: T1, GFP-BAF (barrier-to-autointegration factor, wild type) (Drosophila) (UniProt Q9VLU0)
T1 sequence: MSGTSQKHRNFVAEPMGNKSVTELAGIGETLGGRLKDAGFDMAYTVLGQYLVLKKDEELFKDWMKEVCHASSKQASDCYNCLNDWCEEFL
Assay: co-IP

- binding: binds
Substance: E2F1 (from UniProt Q27368 1-805)
